## Primary screen of a compound library

Protein sequences, listed by entry. Tags and fused reporters are not part of them. Residues count along the entry.
UniProt A4I591, 1-473: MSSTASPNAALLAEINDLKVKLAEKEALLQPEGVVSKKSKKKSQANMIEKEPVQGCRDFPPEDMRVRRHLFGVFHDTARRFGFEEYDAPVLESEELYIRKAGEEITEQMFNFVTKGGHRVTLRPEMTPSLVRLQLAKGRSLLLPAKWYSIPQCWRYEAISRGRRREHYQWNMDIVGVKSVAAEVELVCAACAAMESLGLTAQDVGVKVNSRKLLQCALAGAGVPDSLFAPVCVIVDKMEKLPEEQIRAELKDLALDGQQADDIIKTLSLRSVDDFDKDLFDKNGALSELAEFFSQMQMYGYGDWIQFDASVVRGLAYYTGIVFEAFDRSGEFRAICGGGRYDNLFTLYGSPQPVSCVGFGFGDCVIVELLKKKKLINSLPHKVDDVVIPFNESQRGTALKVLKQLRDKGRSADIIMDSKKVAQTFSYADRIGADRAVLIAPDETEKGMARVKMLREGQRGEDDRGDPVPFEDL
UniProt P9WFT3, whole entry: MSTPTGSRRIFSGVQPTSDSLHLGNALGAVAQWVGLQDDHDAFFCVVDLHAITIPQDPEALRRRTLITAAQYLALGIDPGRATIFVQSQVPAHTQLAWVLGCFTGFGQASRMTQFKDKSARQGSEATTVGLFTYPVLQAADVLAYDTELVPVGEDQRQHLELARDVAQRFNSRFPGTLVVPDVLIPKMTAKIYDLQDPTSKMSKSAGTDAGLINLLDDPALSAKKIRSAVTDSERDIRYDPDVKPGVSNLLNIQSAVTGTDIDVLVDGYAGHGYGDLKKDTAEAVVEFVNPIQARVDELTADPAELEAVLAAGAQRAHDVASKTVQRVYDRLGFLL

LiHisRS: 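Histidine-tRNA ligase, Leishmania infantum (UniProt A4I591). Enzyme assay of histidyl-tRNA synthetase; the read-out is not stated. Compounds at 30 µM. Direction is inferred from retests: higher values go with stronger inhibition. The assay is labelled LdHisRS but filed under L. infantum. Size under these conditions: about 69,000 compounds, about 410 of them at 50% or above in at least one test.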
MtTrpRS: 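Enzyme assay of tryptophanyl-tRNA synthetase; the read-out is not stated. Target: Tryptophan-tRNA ligase, Mycobacterium tuberculosis (UniProt P9WFT3). Tested at 10 µM. Direction is not recorded; retested compounds ran higher, which suggests that high means inhibition. Size under these conditions: about 65,000 compounds, about 64 of them at 50% or above in at least one test.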

Values are the deposited “Percent Effect”, in %.
How 0% and 100% were set is not recorded. Most values in the screen are low, and negative values occur.
Compounds were drawn at random from those tested, without regard to their results.

{"structure": "COc1ccc2c(ccn2CCC(=O)Nc2n[nH]c(CC(C)C)n2)c1", "LiHisRS": 34.78, "MtTrpRS": 3.537}
{"structure": "O=C(Cn1cc(-c2ccccc2)ncc1=O)Nc1ccncc1", "LiHisRS": 22.86, "MtTrpRS": 3.425}
{"structure": "CO[C@H]1C[C@@H](O)C12CCN(CCCOc1ccc(C(N)=O)cc1)CC2", "LiHisRS": 19.05, "MtTrpRS": 0.8639}
{"structure": "CC(C(N)=O)N(C)Cc1ccccc1C(F)(F)F", "stereo": "stereo not shown", "LiHisRS": 0, "MtTrpRS": 0}
{"structure": "O=C(c1ccc(-n2cccn2)nc1)N1CCCC(c2cnccn2)C1", "stereo": "stereo not shown", "LiHisRS": 2.837, "MtTrpRS": 5.699}
{"structure": "Cc1ccc(C2CCCN2Cc2nc3c(cnn3C)c(=O)[nH]2)cc1C", "stereo": "stereo not shown", "LiHisRS": 7.865, "MtTrpRS": 2.911}
{"structure": "O=C(CC1CCc2ccccc21)NC1(C(=O)O)CCOCC1", "stereo": "stereo not shown", "LiHisRS": 8.889, "MtTrpRS": 2.542}
{"structure": "O=C(COC1CCCC1)N1CC[C@H]2OCC[C@@]2(COCC2CC2)C1", "LiHisRS": 8.547, "MtTrpRS": -3.973}
{"structure": "Cc1noc(C)c1CCC(=O)N1CCOCC1CCc1cnccn1", "stereo": "stereo not shown", "LiHisRS": 8.451, "MtTrpRS": 15.42}
{"structure": "CN1C[C@@H]2CN(C(=O)C3CCOC3)C[C@@H]2C1=O", "stereo": "stereo partly shown", "LiHisRS": -1.316, "MtTrpRS": -0.7647}
{"structure": "CC(C1CCN(Cc2c(Cl)cncc2Cl)CC1)N1CCOCC1", "stereo": "stereo not shown", "LiHisRS": 17.09, "MtTrpRS": -3.355}
{"structure": "COCCC(=O)N1CCCC([C@@H]2C[C@H](C(F)F)n3ncnc3N2)C1", "stereo": "stereo partly shown", "LiHisRS": 11.51, "MtTrpRS": 1.172}
{"structure": "O=C(CCOc1cccc(F)c1)N1CCCC(n2cccn2)C1", "stereo": "stereo not shown", "LiHisRS": 10.26, "MtTrpRS": -1.874}
{"structure": "CN(C)C(=O)c1cccc(CN2CCOC(Cn3cncn3)C2)c1", "stereo": "stereo not shown", "LiHisRS": 3.478, "MtTrpRS": -3.603}
{"structure": "CN(C)c1nc2ncc(Cl)cc2cc1C#N", "LiHisRS": 2.083, "MtTrpRS": 8.292}
{"structure": "CC[C@H]1CN2CC[C@H]1C[C@@H]2CNC(=O)Nc1ccc(Br)cc1", "LiHisRS": 8.333, "MtTrpRS": 1.581}
{"structure": "OC1(CNCc2noc(Cc3ccccc3)n2)CNCCOC1", "stereo": "stereo not shown", "LiHisRS": 11.43, "MtTrpRS": 0.8396}
{"structure": "CC(C)[C@@H]1CN(C(=O)CCn2ccccc2=O)C[C@H]1NS(C)(=O)=O", "LiHisRS": 10.42, "MtTrpRS": -6.089}
{"structure": "CC(C)N1Cc2c(C(=O)N3CCOCC3)nn(C)c2C1", "LiHisRS": 6.015, "MtTrpRS": 2.18}
{"structure": "O=C(NC[C@H]1OC[C@@H](NC2CCNCC2)[C@@H]1O)C1CCCC1", "LiHisRS": 17.57, "MtTrpRS": -4.173}
{"structure": "CCOc1ccc(Cl)c(C(=O)NCCC(=O)Nc2ccncc2)n1", "LiHisRS": 23.15, "MtTrpRS": -2.941}
{"structure": "CCNC(=O)NC(=O)CNC1(c2noc(C)n2)CCCC1", "LiHisRS": -4.494, "MtTrpRS": -1.321}
{"structure": "O=C(NCCCn1cnnc1)C1CCCN(C2CCCC2)C1", "stereo": "stereo not shown", "LiHisRS": 3.39, "MtTrpRS": -0.8675}
{"structure": "Cc1c(C[S+](C)[O-])cccc1NC(=O)c1cc(Cl)ccn1", "stereo": "stereo not shown", "LiHisRS": 21.84, "MtTrpRS": -3.507}
{"structure": "Cc1ccc([C@]2(O)CC[C@H]3CN(Cc4cc(C)c(O)c(C)c4)C[C@H]32)nc1", "LiHisRS": 13.89, "MtTrpRS": 1.421}
{"structure": "COCCn1cc2c(n1)C(CNC(=O)c1cc(C)[nH]c1C)OCC2", "stereo": "stereo not shown", "LiHisRS": 13.46}
{"structure": "CCN(CC)C(=O)c1ccn(COc2ccccc2)n1", "LiHisRS": 13.59, "MtTrpRS": -1.608}
{"structure": "COC(=O)[C@H](C)NC(=O)Cc1c(C)nc2c(c1C)c(=O)[nH]n2C", "LiHisRS": 26.88, "MtTrpRS": 4.009}
{"structure": "Cc1nc(C)n(C2CCCN(C(=O)c3cn4cccnc4n3)C2)n1", "stereo": "stereo not shown", "LiHisRS": 1.754, "MtTrpRS": -3.455}
{"structure": "Cc1ccc(S(=O)(=O)N2CSCC2C(=O)N(C)C2CC2)cc1Cl", "stereo": "stereo not shown", "LiHisRS": 22.64, "MtTrpRS": -0.8382}
{"structure": "CC(NC(=O)N(C)C1CC1)c1ccc(Oc2cccnc2)c(F)c1", "stereo": "stereo not shown", "LiHisRS": 13.04, "MtTrpRS": 1.608}
{"structure": "NCC1[C@H]2CN(Cc3ccccc3F)C[C@@H]12", "stereo": "stereo partly shown", "LiHisRS": 13.46, "MtTrpRS": -8.576}
{"structure": "CC(=O)N1CC[C@@H]2CN(Cc3cccc(Cl)c3)S(=O)(=O)[C@@H]2CC1", "LiHisRS": 17.14, "MtTrpRS": -2.116}
{"structure": "O=C(c1cc(-c2cccs2)cs1)N1CCOCC1", "LiHisRS": 16.05, "MtTrpRS": -3.565}
{"structure": "c1cnc2c(c1)cc([C@H]1CCCO1)n2CCN1CCOCC1", "LiHisRS": 13.89, "MtTrpRS": 4.097}
{"structure": "O=C(c1ccco1)N1CCC2(CC1)C(=O)NCCN2CC1CC1", "LiHisRS": 0, "MtTrpRS": 9.492}
{"structure": "O=C(c1cccnc1)N1CCOCC2(CCN(c3ncccn3)C2)C1", "stereo": "stereo not shown", "LiHisRS": -2.778, "MtTrpRS": -2.995}
{"structure": "CC(C)CN(Cc1nnc(-c2ccco2)o1)CC(C)C", "LiHisRS": 24.73, "MtTrpRS": 1.145}
{"structure": "Cc1ccccc1OC1CCN(CC(=O)Nc2cn(C)nc2C)CC1", "LiHisRS": 10.74, "MtTrpRS": -4.777}
{"structure": "COc1ccc2nnc(C(=O)NCC3CCCC3)nc2c1", "LiHisRS": 14.94, "MtTrpRS": -5.791}
{"structure": "O=C1CN(C(=O)CN(CC2CCC2)CC(F)(F)F)CCN1", "LiHisRS": 6.329, "MtTrpRS": 4.48}
{"structure": "COCCOc1cccc(C(=O)N2CCCC(n3ccnc3C)C2)c1", "stereo": "stereo not shown", "LiHisRS": 6.25, "MtTrpRS": 1.101}
{"structure": "CCc1n[nH]c(C2CN(C(=O)c3csnn3)CCO2)n1", "stereo": "stereo not shown", "LiHisRS": 18.67, "MtTrpRS": -0.07819}
{"structure": "Nc1ccnc(C(=O)N2CCCC3(CCC(=O)N(C4CCCC4)C3)C2)c1", "stereo": "stereo not shown", "LiHisRS": 22.86, "MtTrpRS": -0.3358}

Repeated from the top, 5 entries:

structure	LiHisRS	MtTrpRS
COc1ccc2c(ccn2CCC(=O)Nc2n[nH]c(CC(C)C)n2)c1	34.78%	3.537%
O=C(Cn1cc(-c2ccccc2)ncc1=O)Nc1ccncc1	22.86%	3.425%
CO[C@H]1C[C@@H](O)C12CCN(CCCOc1ccc(C(N)=O)cc1)CC2	19.05%	0.8639%
CC(C(N)=O)N(C)Cc1ccccc1C(F)(F)F (stereo not shown)	0%	0%
O=C(c1ccc(-n2cccn2)nc1)N1CCCC(c2cnccn2)C1 (stereo not shown)	2.837%	5.699%

The values are deposited in ChEMBL (CHEMBL3988442, “University of Dundee, Small-Polar-MMV Screening Library” (2021)).